The list does not hold the whole screen: it covers a few groups of compounds. Other doses and runs of a compound may be missing. T/C is the treated group as % of the vehicle group. Where survival is the endpoint, the PubChem record calls one and a half times the control and up active, and a quarter to a half above the control has no call in these data; cut-offs in other NCI protocols can differ. Schedules are NCI's codes, read here as Q, the interval in days (D) or hours (H), X, the number of doses. Some entries show no survivor count and are marked so; the dose need not have been tolerated. Some entries hold several experiments; their values stand side by side, smallest first.
Tested on: BDF1 mice, P388 leukemia ip, median survival T/C
Assay: NCI In Vivo Anticancer Drug Screen. Data for tumor model P388 Leukemia (intraperitoneal) in B6D2F1 (BDF1) mice
Details: T/C endpoint: median survival time, higher T/C = longer survival
Procedure: The antitumor activity of compounds was measured in mice bearing transplantable tumors. Survival or tumor size were measured and the results are expressed as the measurement made in the treated group (T) divided by the measurement made in the vehicle treated control group (C). The tumor model used in this assay is P388 Leukemia (intraperitoneal) in B6D2F1 (BDF1) mice

## CC(=O)OCC12CCC(C)=CC1OC1C(O)C(OC(C)=O)C2(C)C12CO2 (centres undefined)
dose: 0.13 mg/kg/injection, schedule: Q01DX001 (ip), vehicle: saline
  T/C: 109 % of control [survivor count not shown]
dose: 0.25 mg/kg/injection, schedule: Q01DX001 (ip), vehicle: saline
  T/C: 104 % of control [survivor count not shown]
dose: 0.25 mg/kg/injection, schedule: Q01DX009 (ip), vehicle: saline
  T/C: 159 [survivor count not shown] and 195 % of control [survivor count not shown]
dose: 0.5 mg/kg/injection, schedule: Q01DX001 (ip), vehicle: saline
  T/C: 118 % of control [survivor count not shown]
dose: 0.5 mg/kg/injection, schedule: Q01DX009 (ip), vehicle: saline
  T/C: 186 [survivor count not shown] and 225 % of control [survivor count not shown]
dose: 0.5 mg/kg/injection, schedule: Q01DX009 (sc), vehicle: saline
  T/C: 120 % of control [survivor count not shown]
dose: 0.5 mg/kg/injection, schedule: Q01DX010 (ip), vehicle: saline
  T/C: 190 % of control [survivor count not shown]
dose: 0.67 mg/kg/injection, schedule: Q01DX009 (ip), vehicle: water
  T/C: 180 [survivor count not shown] and 185 % of control [survivor count not shown]
dose: 1.0 mg/kg/injection, schedule: Q01DX001 (ip), vehicle: saline
  T/C: 109 % of control [survivor count not shown]
dose: 1.0 mg/kg/injection, schedule: Q01DX009 (ip), vehicle: saline
  T/C: 245 % of control [survivor count not shown]
dose: 1.0 mg/kg/injection, schedule: Q01DX009 (sc), vehicle: saline
  T/C: 158 % of control [survivor count not shown]
dose: 1.0 mg/kg/injection, schedule: Q01DX010 (ip), vehicle: saline
  T/C: 219 % of control [survivor count not shown]
dose: 1.08 mg/kg/injection, schedule: Q01DX009 (ip), vehicle: saline + alcohol
  T/C: 172 % of control [survivor count not shown]
dose: 1.25 mg/kg/injection, schedule: Q01DX009 (ip), vehicle: water
  T/C: 190 [survivor count not shown] and 220 % of control [survivor count not shown]
dose: 1.3 mg/kg/injection, schedule: Q04DX003 (sc), vehicle: saline + alcohol
  T/C: 144 % of control [survivor count not shown]
dose: 1.8 mg/kg/injection, schedule: Q01DX009 (ip), vehicle: saline + alcohol
  T/C: 184 % of control [survivor count not shown]
dose: 2.0 mg/kg/injection, schedule: Q01DX001 (ip), vehicle: saline, evaluated on day 30
  T/C: 100 % of control [survivor count not shown]
dose: 2.0 mg/kg/injection, schedule: Q01DX001 (ip), vehicle: saline, evaluated on day 60
  T/C: 122 % of control [survivor count not shown]
dose: 2.0 mg/kg/injection, schedule: Q01DX009 (ip), vehicle: saline
  T/C: 209 [survivor count not shown] and 245 % of control [survivor count not shown]
dose: 2.0 mg/kg/injection, schedule: Q01DX009 (sc), vehicle: saline
  T/C: 150 % of control [survivor count not shown]
dose: 2.0 mg/kg/injection, schedule: Q01DX010 (ip), vehicle: saline
  T/C: 223 % of control [survivor count not shown]
dose: 2.0 mg/kg/injection, schedule: Q04DX003 (ip), vehicle: saline, evaluated on day 35
  T/C: 153 % of control [survivor count not shown]
dose: 2.0 mg/kg/injection, schedule: Q04DX003 (ip), vehicle: saline, evaluated on day 60
  T/C: 127 % of control [survivor count not shown]
dose: 2.0 mg/kg/injection, schedule: Q08DX002 (ip), vehicle: saline
  T/C: 127 % of control [survivor count not shown]
dose: 2.16 mg/kg/injection, schedule: Q04DX003 (sc), vehicle: saline + alcohol
  T/C: 156 % of control [survivor count not shown]
dose: 2.5 mg/kg/injection, schedule: Q01DX009 (ip), vehicle: water
  T/C: 210 [survivor count not shown] and 220 % of control [survivor count not shown]
dose: 2.5 mg/kg/injection, schedule: Q04DX002 (ip), vehicle: saline + alcohol
  T/C: 118 % of control [survivor count not shown]
dose: 2.88 mg/kg/injection, schedule: Q04DX003 (ip), vehicle: saline + alcohol
  T/C: 94 [survivor count not shown] and 148 % of control [survivor count not shown]
dose: 3.0 mg/kg/injection, schedule: Q01DX009 (ip), vehicle: saline + alcohol
  T/C: 193 % of control [survivor count not shown]
dose: 3.24 mg/kg/injection, schedule: Q04DX003 (ip), vehicle: other
  T/C: 150 % of control [survivor count not shown]
dose: 4.0 mg/kg/injection, schedule: Q01DX001 (ip), vehicle: saline, evaluated on day 30
  T/C: 127 % of control [survivor count not shown]
dose: 4.0 mg/kg/injection, schedule: Q01DX001 (ip), vehicle: saline, evaluated on day 60
  T/C: 118 % of control [survivor count not shown]
dose: 4.0 mg/kg/injection, schedule: Q01DX001 (oral), vehicle: saline
  T/C: 116 % of control [survivor count not shown]
dose: 4.0 mg/kg/injection, schedule: Q01DX001 (sc), vehicle: saline
  T/C: 108 % of control [survivor count not shown]
dose: 4.0 mg/kg/injection, schedule: Q01DX009 (ip), vehicle: saline
  T/C: 95 [survivor count not shown] and 163 % of control [survivor count not shown]
dose: 4.0 mg/kg/injection, schedule: Q04DX003 (ip), vehicle: saline, evaluated on day 60
  T/C: 110 [survivor count not shown] and 136 % of control [survivor count not shown]
dose: 4.0 mg/kg/injection, schedule: Q08DX002 (ip), vehicle: saline
  T/C: 136 % of control [survivor count not shown]
dose: 4.32 mg/kg/injection, schedule: Q04DX003 (ip), vehicle: saline + alcohol
  T/C: 141 [survivor count not shown] and 142 % of control [survivor count not shown]
dose: 4.7 mg/kg/injection, schedule: Q01DX009 (ip), vehicle: saline with Tween-80
  T/C: 214 % of control [survivor count not shown]
dose: 4.8 mg/kg/injection, schedule: Q04DX003 (ip), vehicle: saline + alcohol
  T/C: 138 [survivor count not shown] and 153 % of control [survivor count not shown]
dose: 5.4 mg/kg/injection, schedule: Q04DX003 (ip), vehicle: other
  T/C: 117 % of control [survivor count not shown]
dose: 7.0 mg/kg/injection, schedule: Q01DX009 (ip), vehicle: saline with Tween-80
  T/C: 102 % of control [survivor count not shown]
dose: 7.2 mg/kg/injection, schedule: Q04DX003 (ip), vehicle: saline + alcohol
  T/C: 152 [survivor count not shown], 157 [survivor count not shown], 163 % of control [survivor count not shown]
dose: 8.0 mg/kg/injection, schedule: Q01DX001 (oral), vehicle: saline
  T/C: 133 % of control [survivor count not shown]
dose: 8.0 mg/kg/injection, schedule: Q04DX003 (ip), vehicle: saline + alcohol
  T/C: 138 [survivor count not shown] and 159 % of control [survivor count not shown]
dose: 8.0 mg/kg/injection, schedule: Q04DX003 (ip), vehicle: saline, evaluated on day 35
  T/C: 161 % of control [survivor count not shown]
dose: 8.0 mg/kg/injection, schedule: Q04DX003 (ip), vehicle: saline, evaluated on day 60
  T/C: 105 [survivor count not shown] and 150 % of control [survivor count not shown]
dose: 8.7 mg/kg/injection, schedule: Q01DX001 (ip), vehicle: saline with Tween-80
  T/C: 124 % of control [survivor count not shown]
dose: 9.0 mg/kg/injection, schedule: Q04DX003 (ip), vehicle: other
  T/C: 97 % of control [survivor count not shown]
dose: 10.0 mg/kg/injection, schedule: Q04DX002 (ip), vehicle: saline + alcohol
  T/C: 135 % of control [survivor count not shown]
dose: 10.5 mg/kg/injection, schedule: Q01DX009 (ip), vehicle: saline with Tween-80
  T/C: 86 % of control [survivor count not shown]
dose: 12.0 mg/kg/injection, schedule: Q04DX003 (ip), vehicle: saline + alcohol
  T/C: 144 [survivor count not shown] and 159 % of control [survivor count not shown]
dose: 13.33 mg/kg/injection, schedule: Q04DX003 (ip), vehicle: saline + alcohol
  T/C: 151 % of control [survivor count not shown]
dose: 16.0 mg/kg/injection, schedule: Q04DX003 (ip), vehicle: saline, evaluated on day 60
  T/C: 130 % of control [survivor count not shown]
dose: 20.0 mg/kg/injection, schedule: Q04DX003 (ip), vehicle: saline + alcohol
  T/C: 88 % of control [survivor count not shown]
dose: 62.5 micrograms/kg/injection, schedule: Q03HX008 (ip), vehicle: saline
  T/C: 127 % of control [survivor count not shown]
dose: 62.5 micrograms/kg/injection, schedule: Q03HX016 (ip), vehicle: saline
  T/C: 136 % of control [survivor count not shown]
dose: 62.5 micrograms/kg/injection, schedule: Q03HX024 (ip), vehicle: saline
  T/C: 140 % of control [survivor count not shown]
dose: 125.0 micrograms/kg/injection, schedule: Q03HX008 (ip), vehicle: saline
  T/C: 136 % of control [survivor count not shown]
dose: 125.0 micrograms/kg/injection, schedule: Q03HX024 (ip), vehicle: saline
  T/C: 172 % of control [survivor count not shown]
dose: 250.0 micrograms/kg/injection, schedule: Q03HX008 (ip), vehicle: saline
  T/C: 136 % of control [survivor count not shown]
dose: 250.0 micrograms/kg/injection, schedule: Q03HX016 (ip), vehicle: saline
  T/C: 163 % of control [survivor count not shown]
dose: 500.0 micrograms/kg/injection, schedule: Q03HX008 (ip), vehicle: saline
  T/C: 136 % of control [survivor count not shown]
dose: 500.0 micrograms/kg/injection, schedule: Q03HX016 (ip), vehicle: saline
  T/C: 163 % of control [survivor count not shown]
dose: 778.0 micrograms/kg/injection, schedule: Q04DX003 (ip), vehicle: saline + alcohol
  T/C: 130 % of control [survivor count not shown]
dose: 1300.0 micrograms/kg/injection, schedule: Q04DX003 (ip), vehicle: saline + alcohol
  T/C: 163 % of control [survivor count not shown]
dose: 2160.0 micrograms/kg/injection, schedule: Q04DX003 (ip), vehicle: saline + alcohol
  T/C: 145 % of control [survivor count not shown]
dose: 3600.0 micrograms/kg/injection, schedule: Q04DX003 (ip), vehicle: saline + alcohol
  T/C: 149 % of control [survivor count not shown]
dose: 6000.0 micrograms/kg/injection, schedule: Q04DX003 (ip), vehicle: saline + alcohol
  T/C: 170 % of control [survivor count not shown]
